Reference: the supplement of paper PMC10849652
This is one part of the list.

By UniProt entry, the sequences of proteins in these tests, tags left out. Where a name states a change or a piece, a line headed by the entry shows the natural chain unless it says otherwise.
UniProt Q92696: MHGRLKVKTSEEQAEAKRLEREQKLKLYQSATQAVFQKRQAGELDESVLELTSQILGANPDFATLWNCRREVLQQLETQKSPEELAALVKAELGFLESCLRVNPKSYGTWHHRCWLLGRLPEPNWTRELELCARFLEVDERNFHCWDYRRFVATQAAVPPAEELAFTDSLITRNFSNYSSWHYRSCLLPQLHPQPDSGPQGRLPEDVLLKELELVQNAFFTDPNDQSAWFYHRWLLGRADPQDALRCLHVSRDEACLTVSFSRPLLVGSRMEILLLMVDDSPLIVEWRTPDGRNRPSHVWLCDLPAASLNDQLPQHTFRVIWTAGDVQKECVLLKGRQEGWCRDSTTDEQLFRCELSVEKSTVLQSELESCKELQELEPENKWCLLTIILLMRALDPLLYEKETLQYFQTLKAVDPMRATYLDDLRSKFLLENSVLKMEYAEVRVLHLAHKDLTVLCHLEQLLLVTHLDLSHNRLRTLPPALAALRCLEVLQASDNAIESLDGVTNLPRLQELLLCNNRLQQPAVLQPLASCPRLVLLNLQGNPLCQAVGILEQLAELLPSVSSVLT
UniProt Q9ULC3: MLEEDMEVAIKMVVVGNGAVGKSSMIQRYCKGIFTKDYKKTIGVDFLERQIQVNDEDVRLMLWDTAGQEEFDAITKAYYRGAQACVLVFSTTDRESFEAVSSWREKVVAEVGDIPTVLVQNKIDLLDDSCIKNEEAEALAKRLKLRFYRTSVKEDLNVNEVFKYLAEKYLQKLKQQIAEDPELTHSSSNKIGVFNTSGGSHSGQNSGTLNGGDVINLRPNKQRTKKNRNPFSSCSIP
UniProt Q9NP72: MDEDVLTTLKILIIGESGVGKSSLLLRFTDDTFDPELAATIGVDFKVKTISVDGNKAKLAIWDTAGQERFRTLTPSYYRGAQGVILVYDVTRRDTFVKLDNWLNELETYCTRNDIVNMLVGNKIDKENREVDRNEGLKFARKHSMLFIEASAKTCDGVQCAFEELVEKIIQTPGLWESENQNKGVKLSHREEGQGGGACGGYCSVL
UniProt O00194: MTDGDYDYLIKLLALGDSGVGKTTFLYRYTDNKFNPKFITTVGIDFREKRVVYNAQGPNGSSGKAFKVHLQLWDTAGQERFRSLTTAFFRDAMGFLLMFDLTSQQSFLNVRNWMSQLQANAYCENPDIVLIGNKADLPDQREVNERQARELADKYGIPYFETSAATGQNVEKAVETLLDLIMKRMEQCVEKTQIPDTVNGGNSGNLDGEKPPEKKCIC
UniProt P11233: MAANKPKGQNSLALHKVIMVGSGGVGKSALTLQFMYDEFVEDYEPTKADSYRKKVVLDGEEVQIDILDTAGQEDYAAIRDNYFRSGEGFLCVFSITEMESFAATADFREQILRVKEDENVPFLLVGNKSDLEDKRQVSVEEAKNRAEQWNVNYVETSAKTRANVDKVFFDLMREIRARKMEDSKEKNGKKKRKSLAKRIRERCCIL
UniProt Q9UI14, whole entry, looked up: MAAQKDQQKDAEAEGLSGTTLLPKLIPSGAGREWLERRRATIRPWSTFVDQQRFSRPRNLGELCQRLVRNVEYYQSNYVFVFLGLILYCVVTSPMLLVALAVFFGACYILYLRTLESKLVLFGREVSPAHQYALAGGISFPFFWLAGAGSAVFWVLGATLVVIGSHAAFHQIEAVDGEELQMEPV
UniProt P49792, whole entry, looked up: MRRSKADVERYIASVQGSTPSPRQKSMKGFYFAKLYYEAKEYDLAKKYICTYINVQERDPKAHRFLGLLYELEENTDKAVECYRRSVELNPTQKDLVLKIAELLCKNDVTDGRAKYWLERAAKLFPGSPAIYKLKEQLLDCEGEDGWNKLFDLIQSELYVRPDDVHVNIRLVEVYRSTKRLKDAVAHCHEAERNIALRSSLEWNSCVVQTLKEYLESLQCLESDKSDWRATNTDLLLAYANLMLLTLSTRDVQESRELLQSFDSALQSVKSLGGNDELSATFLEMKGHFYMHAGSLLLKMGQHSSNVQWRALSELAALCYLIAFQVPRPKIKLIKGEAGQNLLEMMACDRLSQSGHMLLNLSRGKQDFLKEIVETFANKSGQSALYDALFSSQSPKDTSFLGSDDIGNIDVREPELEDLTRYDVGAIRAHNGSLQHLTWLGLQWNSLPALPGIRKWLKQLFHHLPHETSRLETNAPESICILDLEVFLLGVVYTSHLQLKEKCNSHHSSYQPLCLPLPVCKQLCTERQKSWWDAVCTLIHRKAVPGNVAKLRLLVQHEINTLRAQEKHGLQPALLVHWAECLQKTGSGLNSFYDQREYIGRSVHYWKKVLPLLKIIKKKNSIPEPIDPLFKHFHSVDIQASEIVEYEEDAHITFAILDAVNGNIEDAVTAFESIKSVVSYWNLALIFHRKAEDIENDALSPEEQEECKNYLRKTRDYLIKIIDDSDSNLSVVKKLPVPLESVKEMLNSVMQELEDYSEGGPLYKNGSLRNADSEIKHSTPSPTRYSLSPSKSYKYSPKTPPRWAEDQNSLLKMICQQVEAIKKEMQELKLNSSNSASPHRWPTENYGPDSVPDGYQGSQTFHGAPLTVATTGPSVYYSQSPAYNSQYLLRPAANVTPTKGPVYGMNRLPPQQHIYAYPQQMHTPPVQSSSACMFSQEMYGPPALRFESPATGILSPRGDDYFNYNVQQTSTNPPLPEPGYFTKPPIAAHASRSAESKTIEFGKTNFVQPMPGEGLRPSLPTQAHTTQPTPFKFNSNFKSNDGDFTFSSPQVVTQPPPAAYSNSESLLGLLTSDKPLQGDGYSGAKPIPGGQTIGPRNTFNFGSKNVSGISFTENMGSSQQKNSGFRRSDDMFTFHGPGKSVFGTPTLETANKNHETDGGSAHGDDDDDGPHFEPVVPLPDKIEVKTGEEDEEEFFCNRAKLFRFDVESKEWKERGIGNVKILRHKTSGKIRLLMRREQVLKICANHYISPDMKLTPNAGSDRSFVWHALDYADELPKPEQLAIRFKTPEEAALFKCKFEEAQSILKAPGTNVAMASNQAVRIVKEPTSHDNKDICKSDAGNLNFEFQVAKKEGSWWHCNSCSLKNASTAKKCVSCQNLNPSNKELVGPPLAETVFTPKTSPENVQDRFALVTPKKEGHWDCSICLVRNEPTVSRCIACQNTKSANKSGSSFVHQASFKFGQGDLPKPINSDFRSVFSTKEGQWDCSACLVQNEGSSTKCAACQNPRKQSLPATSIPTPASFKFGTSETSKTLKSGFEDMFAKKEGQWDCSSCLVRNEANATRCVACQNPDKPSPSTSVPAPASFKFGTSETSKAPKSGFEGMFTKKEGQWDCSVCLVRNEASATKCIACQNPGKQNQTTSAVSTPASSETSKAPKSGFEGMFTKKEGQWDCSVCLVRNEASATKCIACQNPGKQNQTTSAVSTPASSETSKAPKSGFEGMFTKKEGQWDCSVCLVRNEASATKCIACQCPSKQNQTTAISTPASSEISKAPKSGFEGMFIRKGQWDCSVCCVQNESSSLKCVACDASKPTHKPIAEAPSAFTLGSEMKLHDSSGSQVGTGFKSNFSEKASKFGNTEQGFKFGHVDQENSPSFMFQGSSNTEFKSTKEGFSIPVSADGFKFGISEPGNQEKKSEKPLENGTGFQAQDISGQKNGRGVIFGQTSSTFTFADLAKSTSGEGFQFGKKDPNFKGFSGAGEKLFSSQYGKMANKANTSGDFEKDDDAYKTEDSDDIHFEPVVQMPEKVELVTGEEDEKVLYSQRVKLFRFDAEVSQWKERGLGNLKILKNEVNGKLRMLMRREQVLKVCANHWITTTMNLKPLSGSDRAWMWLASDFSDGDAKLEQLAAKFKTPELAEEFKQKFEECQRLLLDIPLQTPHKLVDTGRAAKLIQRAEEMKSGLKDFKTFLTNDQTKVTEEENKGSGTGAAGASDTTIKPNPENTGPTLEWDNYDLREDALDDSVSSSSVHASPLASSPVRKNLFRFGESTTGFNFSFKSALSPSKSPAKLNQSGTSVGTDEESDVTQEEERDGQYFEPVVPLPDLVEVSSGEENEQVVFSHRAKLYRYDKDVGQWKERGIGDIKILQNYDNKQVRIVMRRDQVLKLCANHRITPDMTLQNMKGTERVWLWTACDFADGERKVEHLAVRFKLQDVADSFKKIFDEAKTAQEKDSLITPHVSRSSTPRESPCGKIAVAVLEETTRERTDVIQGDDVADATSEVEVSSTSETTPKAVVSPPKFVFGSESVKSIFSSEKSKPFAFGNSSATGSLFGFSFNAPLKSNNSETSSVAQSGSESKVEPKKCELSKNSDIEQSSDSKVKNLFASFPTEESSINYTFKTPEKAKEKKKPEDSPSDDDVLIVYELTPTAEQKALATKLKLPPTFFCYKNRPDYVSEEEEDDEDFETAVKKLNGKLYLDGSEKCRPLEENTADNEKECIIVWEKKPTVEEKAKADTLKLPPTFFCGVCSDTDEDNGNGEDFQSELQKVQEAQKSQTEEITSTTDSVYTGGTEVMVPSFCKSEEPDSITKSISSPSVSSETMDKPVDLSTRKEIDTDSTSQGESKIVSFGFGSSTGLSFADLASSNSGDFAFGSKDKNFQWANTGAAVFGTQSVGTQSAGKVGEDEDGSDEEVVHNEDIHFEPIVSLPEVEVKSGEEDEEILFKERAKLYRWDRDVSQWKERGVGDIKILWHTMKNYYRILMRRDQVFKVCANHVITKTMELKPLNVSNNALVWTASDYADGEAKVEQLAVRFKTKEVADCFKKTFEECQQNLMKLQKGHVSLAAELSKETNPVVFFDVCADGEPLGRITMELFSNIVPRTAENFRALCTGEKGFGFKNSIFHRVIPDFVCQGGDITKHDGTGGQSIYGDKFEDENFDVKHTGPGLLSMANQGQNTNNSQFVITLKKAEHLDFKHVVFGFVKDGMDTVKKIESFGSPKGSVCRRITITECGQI
UniProt P06400: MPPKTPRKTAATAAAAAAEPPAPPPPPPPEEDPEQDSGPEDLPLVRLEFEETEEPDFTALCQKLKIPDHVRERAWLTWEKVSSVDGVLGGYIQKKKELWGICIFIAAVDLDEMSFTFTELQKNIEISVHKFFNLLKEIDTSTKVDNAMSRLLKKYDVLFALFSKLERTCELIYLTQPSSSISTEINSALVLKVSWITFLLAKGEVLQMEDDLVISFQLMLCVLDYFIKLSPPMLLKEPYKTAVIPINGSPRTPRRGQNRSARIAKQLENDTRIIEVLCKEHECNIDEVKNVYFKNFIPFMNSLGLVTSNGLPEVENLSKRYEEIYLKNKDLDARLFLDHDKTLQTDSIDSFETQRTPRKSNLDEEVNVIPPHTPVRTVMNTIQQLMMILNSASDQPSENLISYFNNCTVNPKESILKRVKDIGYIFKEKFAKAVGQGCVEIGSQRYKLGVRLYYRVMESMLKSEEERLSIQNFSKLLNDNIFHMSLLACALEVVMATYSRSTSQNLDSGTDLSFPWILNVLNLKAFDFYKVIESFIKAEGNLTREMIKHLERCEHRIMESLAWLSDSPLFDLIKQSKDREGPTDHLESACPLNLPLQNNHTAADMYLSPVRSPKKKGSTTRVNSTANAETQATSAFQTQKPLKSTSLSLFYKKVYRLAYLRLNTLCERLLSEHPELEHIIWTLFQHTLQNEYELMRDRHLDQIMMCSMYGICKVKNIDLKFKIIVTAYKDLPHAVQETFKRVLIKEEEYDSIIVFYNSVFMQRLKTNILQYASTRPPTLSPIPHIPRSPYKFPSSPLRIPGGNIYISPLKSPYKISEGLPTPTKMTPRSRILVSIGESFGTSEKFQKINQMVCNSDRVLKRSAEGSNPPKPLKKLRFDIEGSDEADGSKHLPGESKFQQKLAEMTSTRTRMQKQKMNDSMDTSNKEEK

Key:
Assay in all cases: log2 fold change, soluble protein after heating vs DMSO (PISA); higher = thermal stabilisation; K562 cells, 10 uM, 30 min; active = over 0.2 and 3.5 SD of the protein, either way, in both replicates (recomputed)
[1] = compound: CS(=O)(=O)c1ccc(-c2cnc(N)c(C(=O)Nc3ccccc3)n2)cc1
How it was run: (§1)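 Soluble protein was quantified by TMTpro 16plex LC-MS/MS after channel sums were equalised. It was obtained as the supernatant after 21,000xg for 90 min from pooled aliquots of K562 cells (2×10^6 cells/mL, 10 μM compound, 30 min) heated for 3 min across 48°C-58°C and extracted in PBS with 0.5% NP-40 at 4°C. Thermal stability values are relative to control samples and come from duplicates. They are given as log2 fold changes.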

crizotinib = compound: C[C@@H](Oc1cc(-c2cnn(C3CCNCC3)c2)cnc1N)c1c(Cl)ccc(F)c1Cl [crizotinib]
How it was run: as §1

[2] = compound: C[C@@H]1COCCN1C2=NC(=NC(=C2)C3(CC3)S(=O)(=O)C)C4=C5C=CNC5=CC=C4
How it was run: as §1

[3] = compound: C[C@H](C1=CC=C(C=C1)C(=O)NC2=C3C=CNC3=NC=C2)N
How it was run: as §1

gandotinib = compound: Cc1cc(Nc2cc(CN3CCOCC3)c3nc(C)c(Cc4ccc(Cl)cc4F)n3n2)n[nH]1 [gandotinib]
How it was run: as §1

[4] = compound: Cc1cc(SCc2sc(-c3ccc(C(F)(F)F)cc3)nc2C)ccc1OCC(=O)O
How it was run: as §1

doramapimod = compound: Cc1ccc(-n2nc(C(C)(C)C)cc2NC(=O)Nc2ccc(OCCN3CCOCC3)c3ccccc23)cc1 [doramapimod]
How it was run: as §1

ispinesib = compound: Cc1ccc(C(=O)N(CCCN)[C@@H](c2nc3cc(Cl)ccc3c(=O)n2Cc2ccccc2)C(C)C)cc1 [ispinesib]
How it was run: as §1

duvelisib = compound: C[C@H](Nc1ncnc2nc[nH]c12)c1cc2cccc(Cl)c2c(=O)n1-c1ccccc1 [duvelisib]
How it was run: as §1

tozasertib = compound: Cc1cc(Nc2cc(N3CCN(C)CC3)nc(Sc3ccc(NC(=O)C4CC4)cc3)n2)n[nH]1 [tozasertib]
How it was run: as §1

| Target | log2 fold change [1] | log2 fold change (crizotinib) | log2 fold change [2] | log2 fold change [3] | log2 fold change (gandotinib) | log2 fold change [4] | log2 fold change (doramapimod) | log2 fold change (ispinesib) | log2 fold change (duvelisib) | log2 fold change (tozasertib) |
| --- | --- | --- | --- | --- | --- | --- | --- | --- | --- | --- |
| RARS2 (UniProt Q5T160) | inactive: -0.026 | inactive: -0.016 | inactive: 0.091 | inactive: -0.021 | inactive: -0.075 | inactive: 0.019 | inactive: -0.017 | inactive: -0.033 | – | – |
| RAP1B (UniProt F5GZG1) | inactive: 0.115 | inactive: 0.011 | inactive: 0.008 | inactive: 0.241 | – | inactive: -0.136 | inactive: 0.044 | – | inactive: 0.036 | inactive: 0.025 |
| RAB8B (UniProt Q92930) | inactive: -0.212 | inactive: 0 | inactive: -0.046 | inactive: -0.345 | inactive: -0.086 | inactive: 0.005 | inactive: 0.034 | inactive: 0.01 | – | – |
| RABGGTA (UniProt Q92696) | inactive: -0.035 | inactive: -0.076 | inactive: 0.046 | inactive: -0.058 | inactive: -0.004 | inactive: -0.008 | inactive: 0.017 | inactive: 0.026 | – | – |
| RALBP1 (UniProt Q15311) | inactive: 0.038 | inactive: 0.017 | inactive: -0.148 | inactive: 0.319 | inactive: 0.148 | – | inactive: 0.151 | – | – | inactive: -0.195 |
| RABGAP1L isoform 3 (UniProt Q5R372) | inactive: -0.018 | inactive: 0.005 | inactive: -0.004 | inactive: -0.138 | inactive: -0.018 | inactive: 0.05 | inactive: 0.052 | inactive: 0.046 | – | – |
| RAB23 (UniProt Q9ULC3) | inactive: 0.025 | inactive: 0.135 | inactive: 0.088 | inactive: -0.033 | inactive: -0.031 | inactive: -0.031 | inactive: -0.029 | inactive: 0.134 | inactive: 0.037 | inactive: -0.07 |
| RABGGTB (UniProt P53611) | inactive: 0.004 | inactive: -0.012 | inactive: 0.085 | inactive: -0.04 | inactive: -0.047 | inactive: 0.007 | inactive: 0.063 | inactive: -0.073 | inactive: 0.064 | inactive: 0.002 |
| RAB18 (UniProt Q9NP72) | inactive: -0.027 | inactive: 0.029 | inactive: -0.059 | inactive: -0.024 | inactive: -0.079 | inactive: -0.018 | inactive: -0.028 | inactive: 0.048 | inactive: -0.01 | inactive: -0.041 |
| RAD50 isoform 2 (UniProt Q92878) | inactive: 0.031 | inactive: 0.064 | inactive: 0.044 | inactive: -0.039 | inactive: -0.017 | inactive: 0.021 | inactive: -0.023 | inactive: 0.033 | – | – |
| RBM22 (UniProt Q9NW64) | inactive: -0.045 | inactive: 0.061 | inactive: -0.053 | inactive: 0.121 | inactive: -0.04 | inactive: 0 | inactive: -0.025 | inactive: -0.053 | – | – |
| RAB27B (UniProt O00194) | inactive: -0.002 | inactive: 0.072 | – | inactive: -0.204 | inactive: -0.071 | inactive: 0.051 | inactive: 0.032 | inactive: -0.002 | inactive: -0.026 | inactive: 0.027 |
| RBM25 (UniProt P49756) | inactive: -0.071 | inactive: -0.052 | inactive: 0.09 | inactive: -0.01 | inactive: -0.166 | inactive: -0.074 | inactive: 0.057 | inactive: -0.049 | – | – |
| RAVER1 (UniProt E9PAU2) | inactive: 0.061 | inactive: 0.049 | inactive: 0.188 | inactive: -0.381 | inactive: -0.091 | inactive: 0.132 | inactive: 0.002 | inactive: -0.171 | – | – |
| RAB19 isoform 2 (UniProt A4D1S5) | inactive: 0.03 | inactive: -0.015 | inactive: -0.029 | – | – | – | inactive: 0.171 | – | – | – |
| RALY (UniProt Q9UKM9) | inactive: -0.149 | inactive: -0.068 | inactive: -0.138 | inactive: 0.316 | inactive: 0.098 | inactive: 0.043 | inactive: 0.01 | inactive: -0.082 | – | – |

| Target | log2 fold change [1] | log2 fold change (crizotinib) | log2 fold change [2] | log2 fold change [3] | log2 fold change (gandotinib) | log2 fold change [4] | log2 fold change (doramapimod) | log2 fold change (ispinesib) | log2 fold change (duvelisib) | log2 fold change (tozasertib) |
| --- | --- | --- | --- | --- | --- | --- | --- | --- | --- | --- |
| RALA (UniProt P11233) | inactive: 0.026 | inactive: 0.112 | inactive: 0.088 | inactive: -0.097 | inactive: -0.001 | inactive: -0.009 | inactive: -0.009 | inactive: 0.03 | – | – |
| RABAC1 (UniProt Q9UI14) | inactive: -0.028 | inactive: -0.013 | inactive: -0.009 | – | inactive: -0.001 | inactive: 0 | inactive: 0.023 | inactive: -0.034 | inactive: 0.057 | inactive: 0.018 |
| RAB5IF isoform 5 (UniProt Q9BUV8) | inactive: -0.036 | inactive: -0.094 | inactive: 0.076 | inactive: -0.007 | inactive: 0.04 | inactive: -0.002 | inactive: 0.025 | inactive: 0.157 | – | – |
| RAC1 (UniProt P63000) | inactive: -0.094 | inactive: 0 | inactive: -0.04 | inactive: -0.06 | inactive: -0.037 | inactive: -0.044 | inactive: 0.112 | inactive: 0.024 | – | – |
| RBM12 (UniProt Q9NTZ6) | inactive: 0.079 | inactive: 0.005 | inactive: 0.16 | inactive: -0.109 | inactive: -0.132 | inactive: 0.1 | inactive: -0.076 | inactive: 0.008 | – | – |
| RAB11FIP1 (UniProt Q6WKZ4) | inactive: -0.071 | inactive: -0.096 | inactive: -0.001 | inactive: -0.038 | inactive: -0.01 | inactive: -0.003 | inactive: 0.047 | active: -0.251 | – | – |
| RANBP2 (UniProt P49792) | inactive: -0.016 | inactive: 0.009 | inactive: -0.011 | inactive: 0.103 | inactive: -0.066 | inactive: -0.003 | inactive: 0.043 | inactive: -0.031 | – | – |
| RAF1 isoform 2 (UniProt P04049) | inactive: 0.023 | inactive: -0.305 | inactive: -0.135 | inactive: -0.092 | inactive: 0.131 | inactive: 0.035 | inactive: 0.133 | inactive: -0.145 | – | – |
| RAP1GDS1 isoform 5 (UniProt P52306) | inactive: 0.061 | inactive: -0.062 | inactive: 0.08 | inactive: 0.009 | inactive: -0.066 | inactive: 0.036 | inactive: -0.014 | inactive: -0.096 | – | – |
| RBBP6 (UniProt Q7Z6E9) | inactive: -0.117 | inactive: -0.158 | inactive: -0.036 | inactive: 0.072 | inactive: -0.066 | – | inactive: 0.012 | inactive: 0.168 | – | – |
| RAB5C isoform 2 (UniProt P51148) | inactive: -0.015 | inactive: 0.099 | inactive: 0.015 | inactive: -0.092 | inactive: -0.021 | inactive: 0.014 | inactive: 0.013 | inactive: 0.054 | – | – |
| RAB3IL1 (UniProt E9PK89) | inactive: 0.036 | inactive: -0.003 | inactive: 0.163 | inactive: -0.211 | inactive: 0.154 | – | inactive: -0.07 | inactive: 0.07 | – | – |
| RAB3IL1 (UniProt Q8TBN0) | inactive: 0.009 | inactive: 0.086 | inactive: 0.071 | inactive: 0.031 | inactive: 0.012 | inactive: -0.009 | inactive: -0.021 | inactive: 0.04 | – | – |
| RAPGEF5, A0A590UJR0 | inactive: 0.01 | inactive: 0.161 | – | inactive: 0.345 | inactive: -0.344 | inactive: -0.037 | inactive: -0.091 | inactive: 0.058 | inactive: 0.222 | inactive: -0.154 |
| RB1 (UniProt P06400) | inactive: 0.041 | inactive: -0.112 | inactive: 0.117 | inactive: -0.07 | inactive: -0.168 | inactive: -0.024 | inactive: 0.022 | inactive: -0.002 | – | – |

Three successive entries already listed, for reference:

| Target | log2 fold change [1] | log2 fold change (crizotinib) | log2 fold change [2] | log2 fold change [3] | log2 fold change (gandotinib) | log2 fold change [4] | log2 fold change (doramapimod) | log2 fold change (ispinesib) | log2 fold change (duvelisib) | log2 fold change (tozasertib) |
| --- | --- | --- | --- | --- | --- | --- | --- | --- | --- | --- |
| RALY (UniProt Q9UKM9) | inactive: -0.149 | inactive: -0.068 | inactive: -0.138 | inactive: 0.316 | inactive: 0.098 | inactive: 0.043 | inactive: 0.01 | inactive: -0.082 | – | – |
| RALA (UniProt P11233) | inactive: 0.026 | inactive: 0.112 | inactive: 0.088 | inactive: -0.097 | inactive: -0.001 | inactive: -0.009 | inactive: -0.009 | inactive: 0.03 | – | – |
| RABAC1 (UniProt Q9UI14) | inactive: -0.028 | inactive: -0.013 | inactive: -0.009 | – | inactive: -0.001 | inactive: 0 | inactive: 0.023 | inactive: -0.034 | inactive: 0.057 | inactive: 0.018 |
